Some of these results come from one statement about several compounds together.
Target: T1, Recombinant HDAC9 isoform 4 (Homo sapiens, UniProt Q9UKV0)
T1 construct: purchased BPS Bioscience
Test: Histone Deacetylase 9 (HDAC9) inhibition assay, fluorogenic substrate
Assay type: biochemical
Conditions: mean of a minimum of 2 experiments; 11 point 3x dilution series from 100 uM; 45 minutes incubation at room temperature
Source text: Histone Deacetylase 9 (HDAC9) Inhibition Assay:
Novel histone deacetylase 9 (HDAC9) inhibitors were characterized in an in vitro biochemical functional assay. The assay measures the increased fluorescent signal due to deacetylation, by HDAC9, of a fluorogenic substrate. The commercial available substrate is Class IIa HDAC-specific and contains an acetylated lysine residue and would releases the fluorescent signal upon trypsin cleavage after deacetylation.
Specifically, test compounds diluted to various concentrations in 100% DMSO are first dispensed into 384-well assay plates. Recombinant HDAC9 isoform 4 (purchased from BPS Bioscience) in complete assay buffer (50 mM Tris-HCl, pH 8.0, 137 mM NaCl, 2.7 mM KCl, 1 mM MgCl2, 0.05% BSA & 0.005% Tween 20) were then added to each well (5 uL/well) using Multidrop Combi (Thermo Scientific), followed by 5 uL/well substrate (purchased from BPS Bioscience, 4.5 uM final). After 45 minutes incubation at room temperature, 10 uL 2× developer solution (assay buffer with 40 uM Trypsin and 20 uM Trichostatin A) was added. The plates were then incubated 1 hour at room temperature before reading in fluorescent intensity mode at 450 nm in an Envision (Perkin Elmer) plate reader. Percent Inhibition of HDAC9 activity by compounds in each test wells was calculated by normalizing to fluorescent signal in control wells containing DMSO only.
For dose response experiments, normalized data were fit by ABASE/XC50 using the equation y=a+(b−a)/(1+(10̂×/10̂c)̂d), where a is the minimum % activity, b is the maximum % activity, c is the pIC50, d is the Hill slope.

Sequences of proteins named here, by UniProt entry; tags and fusion partners are left off. Residues count along the entry.
UniProt Q9UKV0, 1-1066 isoform Q9UKV0-5: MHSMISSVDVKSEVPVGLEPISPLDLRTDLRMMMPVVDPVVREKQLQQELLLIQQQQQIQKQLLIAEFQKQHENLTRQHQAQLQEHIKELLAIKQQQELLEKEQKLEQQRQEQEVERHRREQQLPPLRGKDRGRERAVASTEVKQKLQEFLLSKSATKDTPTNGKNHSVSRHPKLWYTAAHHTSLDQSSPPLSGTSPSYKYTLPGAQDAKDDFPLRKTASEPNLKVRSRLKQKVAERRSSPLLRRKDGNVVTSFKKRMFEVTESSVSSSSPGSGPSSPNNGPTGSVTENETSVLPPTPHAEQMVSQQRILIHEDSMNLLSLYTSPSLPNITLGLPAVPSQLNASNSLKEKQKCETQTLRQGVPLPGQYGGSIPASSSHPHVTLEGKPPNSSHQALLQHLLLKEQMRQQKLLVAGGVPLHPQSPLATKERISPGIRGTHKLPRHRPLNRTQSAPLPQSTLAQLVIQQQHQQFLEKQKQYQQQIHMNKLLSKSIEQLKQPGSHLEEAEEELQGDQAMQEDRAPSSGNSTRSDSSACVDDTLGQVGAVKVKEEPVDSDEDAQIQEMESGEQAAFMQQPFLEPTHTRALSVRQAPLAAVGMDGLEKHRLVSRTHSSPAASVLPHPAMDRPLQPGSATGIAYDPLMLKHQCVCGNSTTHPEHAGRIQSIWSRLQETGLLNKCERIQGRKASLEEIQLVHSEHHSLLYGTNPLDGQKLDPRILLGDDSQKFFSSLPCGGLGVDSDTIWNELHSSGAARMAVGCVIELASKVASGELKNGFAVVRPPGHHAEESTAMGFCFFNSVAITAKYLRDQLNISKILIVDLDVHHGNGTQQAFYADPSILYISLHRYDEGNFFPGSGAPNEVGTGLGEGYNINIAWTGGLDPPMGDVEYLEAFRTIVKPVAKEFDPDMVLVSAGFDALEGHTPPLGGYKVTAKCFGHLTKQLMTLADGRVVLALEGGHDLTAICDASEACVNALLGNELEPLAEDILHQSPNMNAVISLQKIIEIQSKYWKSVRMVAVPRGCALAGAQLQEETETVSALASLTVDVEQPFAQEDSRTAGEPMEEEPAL

Row | Structure (SMILES) | mean pIC50 of HDAC9 inhibition
1 | CN1CCC(CNC(=O)CCCc2noc(C(F)(F)F)n2)(c2coc(-c3ccc(F)cc3)n2)CC1 [Example 5, N-((4-(2-(4-Fluorophenyl)oxazol-4-yl)-1-methylpiperidin-4-yl)methyl)-4-(5-(trifluoromethyl)-1,2,4-oxadiazol-3-yl)butanamide] | greater than 4.0
2 | CC(C)(CCc1noc(C(F)(F)F)n1)C(=O)NCC(C)(C)c1coc(-c2ccc(F)cc2)n1 [Example 6, N-(2-(2-(4-Fluorophenyl)oxazol-4-yl)-2-methylpropyl)-2,2-dimethyl-4-(5-(trifluoromethyl)-1,2,4-oxadiazol-3-yl)butanamide] | greater than 4.0
3 | CN(C)CCC(CNC(=O)CCCc1noc(C(F)F)n1)c1coc(-c2ccc(F)cc2)n1 (stereo not shown) [Example 10, 4-(5-(Difluoromethyl)-1,2,4-oxadiazol-3-yl)-N-(4-(dimethylamino)-2-(2-(4-fluorophenyl)oxazol-4-yl)butyl)butanamide] | greater than 4.0
4 | CC(C)(CNC(=O)CCCc1ccc(C(=O)C(F)(F)F)s1)c1coc(-c2ccc(F)cc2)n1 [Example 13, N-(2-(2-(4-Fluorophenyl)oxazol-4-yl)-2-methylpropyl)-4-(5-(2,2,2-trifluoroacetyl)thiophen-2-yl)butanamide] | greater than 4.0
5 | O=C(CCCc1ccc(C(=O)C(F)(F)F)s1)NCCc1coc(-c2ccc(F)cc2)n1 [Example 14, N-(2-(2-(4-Fluorophenyl)oxazol-4-yl)ethyl)-4-(5-(2,2,2-trifluoroacetyl)thiophen-2-yl)butanamide] | greater than 4.0
6 | CC(C)(CNC(=O)CCCc1ccc(C(=O)C(F)(F)F)s1)c1nc(-c2ccc(F)cc2)n[nH]1 [Example 15, N-(2-(3-(4-Fluorophenyl)-1H-1,2,4-triazol-5-yl)-2-methylpropyl)-4-(5-(2,2,2-trifluoroacetyl)thiophen-2-yl)butanamide] | greater than 4.0
7 | O=C(CCCc1ccc(C(=O)C(F)(F)F)s1)NCCc1nc(-c2ccc(F)cc2)n[nH]1 [Example 17, N-(2-(3-(4-Fluorophenyl)-1H-1,2,4-triazol-5-yl)ethyl)-4-(5-(2,2,2-trifluoroacetyl)thiophen-2-yl)butanamide] | greater than 4.0
8 | CN(C)CCC(CNC(=O)CCCc1ccc(C(=O)C(F)(F)F)s1)c1coc(-c2ccc(F)cc2)n1 (stereo not shown) [Example 18, N-(4-(Dimethylamino)-2-(2-(4-fluorophenyl)oxazol-4-yl)butyl)-4-(5-(2,2,2-trifluoroacetyl)thiophen-2-yl)butanamide] | greater than 4.0

The next lines start with the values.

Row | mean pIC50 of HDAC9 inhibition | Structure (SMILES)
9 | greater than 4.0 | O=C(CCCc1noc(C(F)(F)F)n1)NCC1(c2nc(-c3ccccc3)cs2)CCOCC1 [Example 1, N-((4-(4-Phenylthiazol-2-yl)tetrahydro-2H-pyran-4-yl)methyl)-4-(5-(trifluoromethyl)-1,2,4-oxadiazol-3-yl)butanamide]
10 | greater than 4.0 | CC(C)(CNC(=O)CCCc1noc(C(F)F)n1)c1coc(-c2ccc(F)cc2)n1 [Example 2, 4-(5-(Difluoromethyl)-1,2,4-oxadiazol-3-yl)-N-(2-(2-(4-fluorophenyl)oxazol-4-yl)-2-methylpropyl)butanamide]
11 | greater than 4.0 | CC(C)(CNC(=O)CCCc1noc(C(F)(F)F)n1)c1coc(-c2ccc(F)cc2)n1 [Example 3, N-(2-(2-(4-Fluorophenyl)oxazol-4-yl)-2-methylpropyl)-4-(5-(trifluoromethyl)-1,2,4-oxadiazol-3-yl)butanamide]
12 | greater than 4.0 | CN(C)CCC(CNC(=O)CCCc1noc(C(F)(F)F)n1)c1coc(-c2ccc(F)cc2)n1 (stereo not shown) [Example 4, N-(4-(Dimethylamino)-2-(2-(4-fluorophenyl)oxazol-4-yl)butyl)-4-(5-(trifluoromethyl)-1,2,4-oxadiazol-3-yl)butanamide]
13 | greater than 4.0 | O=C(CCCc1noc(C(F)(F)F)n1)NCCc1coc(-c2ccc(F)cc2)n1 [Example 7, N-(2-(2-(4-Fluorophenyl)oxazol-4-yl)ethyl)-4-(5-(trifluoromethyl)-1,2,4-oxadiazol-3-yl)butanamide]
14 | greater than 4.0 | CN1CCC(CNC(=O)CCCc2noc(C(F)(F)F)n2)(c2csc(-c3ccc(Cl)cc3)n2)CC1 [Example 8, N-((4-(2-(4-Chlorophenyl)thiazol-4-yl)-1-methylpiperidin-4-yl)methyl)-4-(5-(trifluoromethyl)-1,2,4-oxadiazol-3-yl)butanamide]
15 | greater than 4.0 | O=C(CCCc1noc(C(F)(F)F)n1)NCC(O)c1coc(-c2ccc(F)cc2)n1 (stereo not shown) [Example 9, N-(2-(2-(4-Fluorophenyl)oxazol-4-yl)-2-hydroxyethyl)-4-(5-(trifluoromethyl)-1,2,4-oxadiazol-3-yl)butanamide]
16 | greater than 4.0 | CC(C)(CNS(=O)(=O)CCCc1noc(C(F)(F)F)n1)c1coc(-c2ccc(F)cc2)n1 [Example 11, N-(2-(2-(4-Fluorophenyl)oxazol-4-yl)-2-methylpropyl)-3-(5-(trifluoromethyl)-1,2,4-oxadiazol-3-yl)propane-1-sulfonamide]
17 | greater than 4.0 | O=C(CCc1noc(C(F)(F)F)n1)NCCC(O)c1coc(-c2ccc(F)cc2)n1 (stereo not shown) [Example 12, N-(3-(2-(4-Fluorophenyl)oxazol-4-yl)-3-hydroxypropyl)-3-(5-(trifluoromethyl)-1,2,4-oxadiazol-3-yl)propanamide]
18 | greater than 4.0 | O=C(CCc1coc(-c2ccc(F)cc2)n1)NCCCc1noc(C(F)(F)F)n1 [Example 16, 3-(2-(4-Fluorophenyl)oxazol-4-yl)-N-(3-(5-(trifluoromethyl)-1,2,4-oxadiazol-3-yl)propyl)propanamide]
19 | greater than 4.0 | CN1CCC(CNC(=O)CCCc2ccc(C(=O)C(F)(F)F)s2)(c2coc(-c3ccc(F)cc3)n2)CC1 [Example 19, N-((4-(2-(4-Fluorophenyl)oxazol-4-yl)-1-methylpiperidin-4-yl)methyl)-4-(5-(2,2,2-trifluoroacetyl)thiophen-2-yl)butanamide]

Source: patent publication US20120322827A1, “COMPOUNDS AND METHODS” (priority 2010, published 2012)
